Laboratory results as given in US20200345701A1, “USE OF STATINS IN OVERCOMING RESISTANCE TO BETA-LACTAM ANTIBIOTICS IN BACTERIAL SPECIES SYNTHETIZING ISOPRENOIDS USING THE MEVALONATE SYNTHETIC PATHWAY” (CONSEJO SUPERIOR DE INVESTIGACIONES CIENTIFICAS (CSIC), priority 2017, published 2020).
At least one structure is not confirmed: it was looked up by name or label, or the drawing left a doubt.

Tested on: Staphylococcus aureus MRSA strain USA300
Assay: In vitro MRSA cell growth inhibition (bacterial count CFU/ml), statin or ZA with oxacillin
Type: cell-based

## CCC(C)(C)C(=O)O[C@H]1C[C@@H](C)C=C2C=C[C@H](C)[C@H](CC[C@@H]3C[C@@H](O)CC(=O)O3)[C@H]21 [simvastatin]
MRSA cultures, combination with oxacillin
  effect of increasing compound concentration on antibiotic effect of oxacillin: potentiated the antibiotic effect of oxacillin
Combination with the β-lactam antibiotic oxacillin
  MRSA growth (CFU/ml) with oxacillin plus compound: inhibited
Without oxacillin
  MRSA growth (CFU/ml) in the presence of compound alone: unaltered
